Results are given in words; binding and its absence hold for the method and conditions named. For some assays here: In cells and extracts the contact can be indirect. Some binding calls cover weakened binding; strength is not graded here. For some assays here: Sequences can lack the tags named with a protein.
Legend:
[1] = target: Smad2 (in mouse embryonic fibroblasts) (mouse) (UniProt Q62432); experiment: co-immunoprecipitation with anti-Smad2 antibody (FIG. 1e)
[2] = target: Smad3 (in mouse embryonic fibroblasts) (mouse) (UniProt Q8BUN5); experiment: co-immunoprecipitation with anti-Smad3 antibody (FIG. 1e)
[3] = target: T1, AIMP2 protein (wild type, full-length) (human) (UniProt Q13155); experiment: yeast two hybrid (FIG. 4c)
T1 sequence: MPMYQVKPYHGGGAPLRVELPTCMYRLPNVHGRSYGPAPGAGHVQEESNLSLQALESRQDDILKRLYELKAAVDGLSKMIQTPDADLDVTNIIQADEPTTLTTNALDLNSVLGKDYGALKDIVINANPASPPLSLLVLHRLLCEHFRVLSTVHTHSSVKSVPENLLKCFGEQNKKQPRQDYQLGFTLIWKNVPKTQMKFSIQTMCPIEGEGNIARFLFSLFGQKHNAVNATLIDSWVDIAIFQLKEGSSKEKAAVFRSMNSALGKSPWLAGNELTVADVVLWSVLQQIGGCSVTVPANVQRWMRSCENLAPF

Protein sequences, listed by entry. Tags and fused reporters are not part of them. Residues count along the entry.
UniProt Q62432, residues 2-467: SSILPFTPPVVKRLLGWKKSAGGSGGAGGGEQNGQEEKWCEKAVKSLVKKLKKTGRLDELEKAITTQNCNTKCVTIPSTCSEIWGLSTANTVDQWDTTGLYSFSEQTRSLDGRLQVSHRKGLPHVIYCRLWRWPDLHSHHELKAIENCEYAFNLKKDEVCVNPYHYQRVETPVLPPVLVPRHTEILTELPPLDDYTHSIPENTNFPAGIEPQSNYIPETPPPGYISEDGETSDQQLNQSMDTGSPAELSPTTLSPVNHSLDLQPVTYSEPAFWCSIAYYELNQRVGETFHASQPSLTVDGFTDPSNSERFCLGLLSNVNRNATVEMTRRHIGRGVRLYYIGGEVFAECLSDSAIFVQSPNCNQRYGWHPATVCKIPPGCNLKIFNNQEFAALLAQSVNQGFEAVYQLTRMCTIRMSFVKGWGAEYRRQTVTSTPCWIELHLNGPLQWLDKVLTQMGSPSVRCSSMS
UniProt Q8BUN5, residues 2-425: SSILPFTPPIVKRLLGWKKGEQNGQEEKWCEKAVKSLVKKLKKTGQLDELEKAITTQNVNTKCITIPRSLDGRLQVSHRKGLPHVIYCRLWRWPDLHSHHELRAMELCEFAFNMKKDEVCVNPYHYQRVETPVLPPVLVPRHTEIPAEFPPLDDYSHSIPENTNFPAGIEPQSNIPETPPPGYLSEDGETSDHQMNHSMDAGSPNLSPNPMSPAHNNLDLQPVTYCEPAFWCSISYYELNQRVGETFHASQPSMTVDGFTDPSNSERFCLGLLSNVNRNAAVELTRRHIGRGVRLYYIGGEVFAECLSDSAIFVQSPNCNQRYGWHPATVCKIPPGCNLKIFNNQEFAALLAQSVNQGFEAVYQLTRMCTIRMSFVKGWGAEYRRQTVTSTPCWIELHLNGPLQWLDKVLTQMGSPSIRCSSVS
UniProt Q96AE4: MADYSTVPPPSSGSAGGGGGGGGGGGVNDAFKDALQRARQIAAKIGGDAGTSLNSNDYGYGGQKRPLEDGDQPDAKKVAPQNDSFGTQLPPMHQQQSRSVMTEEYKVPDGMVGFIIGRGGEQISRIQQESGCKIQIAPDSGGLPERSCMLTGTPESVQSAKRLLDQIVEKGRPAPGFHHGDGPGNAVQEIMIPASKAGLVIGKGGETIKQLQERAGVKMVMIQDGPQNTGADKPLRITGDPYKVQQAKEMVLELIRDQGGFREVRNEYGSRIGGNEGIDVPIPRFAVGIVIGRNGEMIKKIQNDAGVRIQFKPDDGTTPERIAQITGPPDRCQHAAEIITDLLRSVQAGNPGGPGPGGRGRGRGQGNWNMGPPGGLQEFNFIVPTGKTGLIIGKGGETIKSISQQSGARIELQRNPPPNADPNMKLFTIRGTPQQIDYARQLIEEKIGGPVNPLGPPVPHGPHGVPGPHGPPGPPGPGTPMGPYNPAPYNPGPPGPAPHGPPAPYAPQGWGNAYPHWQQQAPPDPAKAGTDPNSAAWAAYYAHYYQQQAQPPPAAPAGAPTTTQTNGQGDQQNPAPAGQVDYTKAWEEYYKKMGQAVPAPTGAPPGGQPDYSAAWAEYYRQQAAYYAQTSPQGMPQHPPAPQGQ
UniProt Q15796: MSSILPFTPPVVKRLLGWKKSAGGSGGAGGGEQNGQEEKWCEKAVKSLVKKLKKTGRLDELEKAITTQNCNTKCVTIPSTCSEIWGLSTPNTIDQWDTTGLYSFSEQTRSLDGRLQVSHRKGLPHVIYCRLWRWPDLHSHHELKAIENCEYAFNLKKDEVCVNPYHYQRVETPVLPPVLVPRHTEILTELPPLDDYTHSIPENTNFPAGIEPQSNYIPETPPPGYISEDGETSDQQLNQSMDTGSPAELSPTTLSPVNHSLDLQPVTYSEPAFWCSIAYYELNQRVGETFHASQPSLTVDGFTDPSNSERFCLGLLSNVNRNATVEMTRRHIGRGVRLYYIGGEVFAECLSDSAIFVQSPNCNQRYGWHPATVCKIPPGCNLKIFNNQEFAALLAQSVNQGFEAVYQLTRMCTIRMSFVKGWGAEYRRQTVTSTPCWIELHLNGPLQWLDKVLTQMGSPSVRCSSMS
UniProt P84022: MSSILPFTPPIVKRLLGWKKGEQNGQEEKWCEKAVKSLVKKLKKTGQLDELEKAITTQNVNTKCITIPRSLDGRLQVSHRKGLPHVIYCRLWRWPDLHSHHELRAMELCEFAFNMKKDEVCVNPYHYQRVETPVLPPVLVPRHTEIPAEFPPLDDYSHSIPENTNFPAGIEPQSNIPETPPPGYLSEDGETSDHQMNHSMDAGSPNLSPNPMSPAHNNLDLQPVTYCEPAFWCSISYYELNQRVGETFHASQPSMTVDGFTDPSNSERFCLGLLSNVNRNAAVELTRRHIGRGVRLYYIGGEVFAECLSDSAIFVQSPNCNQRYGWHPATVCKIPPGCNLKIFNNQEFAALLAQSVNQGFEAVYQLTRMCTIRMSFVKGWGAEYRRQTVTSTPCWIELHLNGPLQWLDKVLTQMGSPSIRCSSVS

GST-AIMP2-F (human) = target: T2, GST-AIMP2-F (human) (UniProt Q13155); experiment: in vitro pull-down, 35S-labelled protein with GST fusion on glutathione-Sepharose (FIG. 4d)
T2 sequence: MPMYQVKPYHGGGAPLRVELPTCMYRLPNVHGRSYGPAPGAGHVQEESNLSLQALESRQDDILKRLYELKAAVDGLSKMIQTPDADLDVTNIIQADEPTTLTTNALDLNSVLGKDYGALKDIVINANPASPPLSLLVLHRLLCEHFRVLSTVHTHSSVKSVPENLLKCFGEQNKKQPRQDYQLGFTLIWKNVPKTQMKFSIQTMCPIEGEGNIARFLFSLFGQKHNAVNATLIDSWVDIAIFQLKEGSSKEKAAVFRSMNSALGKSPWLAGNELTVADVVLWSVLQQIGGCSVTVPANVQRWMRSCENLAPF

FUSE-binding protein = FUSE-binding protein (UniProt Q96AE4); experiment: yeast two hybrid (FIG. 4e)
Smad2 (human) (human) [4] = target: Smad2 (human) (human) (UniProt Q15796); experiment: yeast two hybrid (FIG. 4e)
Smad2 (human) (human) [5] = target: Smad2 (human) (human) (UniProt Q15796); experiment: yeast two hybrid and in vitro pull-down
Smad3 [6] = target: Smad3 (UniProt P84022); experiment: yeast two hybrid and in vitro pull-down
Smad2 (human) (human) [7] = target: Smad2 (human) (human) (UniProt Q15796); experiment: co-immunoprecipitation from A549 cells with anti-Smad2 antibody (FIG. 2a)
Smad3 [8] = target: Smad3 (UniProt P84022); experiment: co-immunoprecipitation from A549 cells with anti-Smad3 antibody (FIG. 2a)

Measured: binding

B1: AIMP2 (in mouse embryonic fibroblasts) (protein, UniProt Q8R010 1-320, looked up)
chain: MPMYQVKPYHGGSAPLHVELPTCMYRLPNVHSKTTSPATDAGHVQETSEPSLQALESRQDDILKRLYELKAAVDGLSKMIHTPDADLDVTNILQADEPTTLATNTLDLNSVLGKDYGALKDIVINANPASPPLSLLVLHRLLCERYRVLSTVHTHSSVKNVPENLVKCFGEQARKQSRHEYQLGFTLIWKNVPKTQMKFSVQTMCPIEGEGNIARFLFSLFGQKHNAVTLTLIDSWVDIAMFQLREGSSKEKAAVFRSMNSALGRSPWLVGNELTVADVVLWSVLQQTGGSSGAAPTNVQRWLKSCENLAPFSTALQLLK
binds: [1] | [2]

B2: AIMP2-DX2 protein (protein)
chain: MPMYQVKPYHGGGAPLRVELPTCMYRLPNVHGRSYGPAPGAGHVQDYGALKDIVINANPASPPLSLLVLHRLLCEHFRVLSTVHTHSSVKSVPENLLKCFGEQNKKQPRQDYQLGFTLIWKNVPKTQMKFSIQTMCPIEGEGNIARFLFSLFGQKHNAVNATLIDSWVDIAIFQLKEGSSKEKAAVFRSMNSALGKSPWLAGNELTVADVVLWSVLQQIGGCSVTVPANVQRWMRSCENLAPFNTALKLLK
binds: [3] | GST-AIMP2-F (human)

B3: AIMP2 protein (wild type, full-length) (protein)
chain: MPMYQVKPYHGGGAPLRVELPTCMYRLPNVHGRSYGPAPGAGHVQEESNLSLQALESRQDDILKRLYELKAAVDGLSKMIQTPDADLDVTNIIQADEPTTLTTNALDLNSVLGKDYGALKDIVINANPASPPLSLLVLHRLLCEHFRVLSTVHTHSSVKSVPENLLKCFGEQNKKQPRQDYQLGFTLIWKNVPKTQMKFSIQTMCPIEGEGNIARFLFSLFGQKHNAVNATLIDSWVDIAIFQLKEGSSKEKAAVFRSMNSALGKSPWLAGNELTVADVVLWSVLQQIGGCSVTVPANVQRWMRSCENLAPF
not listed: [1] | [2] | [3]
binds: all other assays above
